The target of assay [1] is eGFP-CCDC32(∆78–98) (human) (UniProt Q9BV29). The assay can be described thus: co-IP; IP of eGFP with anti-GFP magnetic beads from lysates of ARPE-HPV cells stably expressing eGFP, eGFP-CCDC32(FL), eGFP-CCDC32(∆78–98) or eGFP-CCDC32(1-54); 0.5 mg lysate protein, 50 mM Tris pH 7.5, 150 mM NaCl, 0.5% Triton X-100, 4 °C, 2 hr; Western blotting. Background: Immunoblotting shows a protein as a band on a membrane.

By UniProt entry, the sequences of proteins in these tests, tags left out. Residues count along the entry.
UniProt P17427, residues 701-938: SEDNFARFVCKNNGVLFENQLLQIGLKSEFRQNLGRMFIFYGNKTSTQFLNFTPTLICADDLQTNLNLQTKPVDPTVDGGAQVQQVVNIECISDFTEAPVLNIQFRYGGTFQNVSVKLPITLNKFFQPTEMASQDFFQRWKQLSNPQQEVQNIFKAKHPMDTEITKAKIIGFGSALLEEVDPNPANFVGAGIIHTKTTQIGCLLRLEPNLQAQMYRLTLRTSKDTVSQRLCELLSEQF
UniProt P62944, residues 592-937: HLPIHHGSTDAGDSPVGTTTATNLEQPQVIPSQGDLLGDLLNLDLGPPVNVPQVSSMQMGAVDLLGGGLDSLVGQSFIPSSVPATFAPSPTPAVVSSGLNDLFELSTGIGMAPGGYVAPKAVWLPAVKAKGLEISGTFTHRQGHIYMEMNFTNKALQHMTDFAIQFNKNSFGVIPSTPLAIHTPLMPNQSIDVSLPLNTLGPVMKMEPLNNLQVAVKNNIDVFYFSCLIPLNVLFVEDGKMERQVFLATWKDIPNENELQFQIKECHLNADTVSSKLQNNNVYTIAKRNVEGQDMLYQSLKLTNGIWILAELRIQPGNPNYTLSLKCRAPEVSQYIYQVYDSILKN
UniProt Q96CW1: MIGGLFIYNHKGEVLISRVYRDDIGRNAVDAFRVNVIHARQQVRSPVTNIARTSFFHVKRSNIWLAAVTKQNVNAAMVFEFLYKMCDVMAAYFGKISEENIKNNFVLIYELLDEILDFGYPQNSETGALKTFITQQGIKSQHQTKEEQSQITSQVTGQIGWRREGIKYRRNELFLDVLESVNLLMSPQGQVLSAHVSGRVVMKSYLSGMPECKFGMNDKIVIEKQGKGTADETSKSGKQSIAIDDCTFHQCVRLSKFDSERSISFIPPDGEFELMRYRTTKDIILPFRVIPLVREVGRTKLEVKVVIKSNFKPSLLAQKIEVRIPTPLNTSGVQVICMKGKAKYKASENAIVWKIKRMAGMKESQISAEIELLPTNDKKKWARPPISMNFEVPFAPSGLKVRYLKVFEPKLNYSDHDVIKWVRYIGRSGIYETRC
UniProt P63010: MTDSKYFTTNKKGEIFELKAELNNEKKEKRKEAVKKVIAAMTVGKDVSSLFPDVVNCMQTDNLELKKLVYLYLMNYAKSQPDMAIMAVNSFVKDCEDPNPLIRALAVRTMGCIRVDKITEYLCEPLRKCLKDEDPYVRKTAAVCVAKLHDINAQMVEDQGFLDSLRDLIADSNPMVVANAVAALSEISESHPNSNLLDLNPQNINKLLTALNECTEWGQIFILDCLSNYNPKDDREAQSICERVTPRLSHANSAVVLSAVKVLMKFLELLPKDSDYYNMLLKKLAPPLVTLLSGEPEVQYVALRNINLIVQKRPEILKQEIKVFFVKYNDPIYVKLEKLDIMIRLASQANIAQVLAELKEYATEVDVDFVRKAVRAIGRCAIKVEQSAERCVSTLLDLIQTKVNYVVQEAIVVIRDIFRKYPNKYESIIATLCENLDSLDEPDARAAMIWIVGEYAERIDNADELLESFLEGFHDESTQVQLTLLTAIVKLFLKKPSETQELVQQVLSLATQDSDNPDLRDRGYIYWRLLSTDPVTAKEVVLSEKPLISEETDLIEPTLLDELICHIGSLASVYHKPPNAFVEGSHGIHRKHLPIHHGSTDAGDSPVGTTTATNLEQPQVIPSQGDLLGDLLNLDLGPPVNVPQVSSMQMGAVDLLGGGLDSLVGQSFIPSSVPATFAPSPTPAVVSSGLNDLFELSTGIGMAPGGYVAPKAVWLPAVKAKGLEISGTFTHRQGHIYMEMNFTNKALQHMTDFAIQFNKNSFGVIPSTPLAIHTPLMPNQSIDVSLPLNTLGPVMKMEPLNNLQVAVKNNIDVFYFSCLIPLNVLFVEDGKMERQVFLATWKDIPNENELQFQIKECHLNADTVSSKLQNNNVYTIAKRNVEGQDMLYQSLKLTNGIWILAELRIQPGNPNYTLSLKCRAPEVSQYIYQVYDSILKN

A further assay concerns the target eGFP-CCDC32(FL) (human) (UniProt Q9BV29). Described as above.
The next assay has as its target GST-AP2-α-AD (mouse) (UniProt P17427). The assay can be described thus: pull-down; purified GST fusion proteins pre-bound to anti-GST beads, added to 0.5 mg lysate of ARPE-HPV eGFP-CCDC32(FL) cells, 4 °C, 2 hr; immunoblot of GFP; only the target purified.
A further assay has as its target GST-AP2-β-AD (rat) (UniProt P62944). The assay is described as above.
The target in assay [2] is T1, eGFP-CCDC32(FL) (human), Q9BV29.
T1 chain: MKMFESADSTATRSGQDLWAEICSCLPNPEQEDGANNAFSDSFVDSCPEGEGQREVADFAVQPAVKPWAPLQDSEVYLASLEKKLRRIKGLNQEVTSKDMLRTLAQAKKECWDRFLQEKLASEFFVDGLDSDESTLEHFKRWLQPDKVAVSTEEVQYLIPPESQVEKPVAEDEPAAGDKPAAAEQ
The assay can be described thus: co-IP; IP of eGFP with anti-GFP magnetic beads from lysates of ARPE-HPV cells stably expressing eGFP, eGFP-CCDC32(FL), eGFP-CCDC32(∆78–98) or eGFP-CCDC32(1-54); 0.5 mg lysate protein, 50 mM Tris pH 7.5, 150 mM NaCl, 0.5% Triton X-100, 4 °C, 2 hr; Western blotting. As to conditions: remark: other sources report otherwise.

Results are given in words; binding and its absence hold for the method and conditions named. Binding seen in cells or lysates may run through a third protein. Some results given as binding are weak or reduced against the parent protein; the word gives no strength. For some of these results: Where a sequence is shown, tags or fusion partners need not be part of it.

For “AP2 µ2 subunit (from UniProt Q96CW1 1-435)”, the binding entry (in assay [1]; with eGFP-CCDC32(FL) (human)) was “binds” in each case. Take “AP2 β2 subunit (from UniProt P63010 1-937)”: the binding result (in assay [1]; with eGFP-CCDC32(FL) (human)) was “binds” in each case. Take “eGFP-CCDC32(FL) (from UniProt Q9BV29 1-185)”: the binding result with GST-AP2-α-AD (mouse) is listed as “binds”; in the assay with GST-AP2-β-AD (rat), “no binding”.

B1: CCDC32 (endogenous), Q9BV29 1-185 (protein)
chain: T1 chain
Take B1: the binding result in assay [2] is recorded as “no binding”.

Values taken from publication PMC12768407.
